Experiment: physchem
Conditions: buffer, pH 7.4

Compound	solubility
CC(C)CCn1nc(CC2CCCC2)c(O)c(C2=NS(=O)(=O)c3cc(NS(C)(=O)=O)ccc3N2)c1=O	> 100 µM
CC(C)(C)CCn1nc(C2=CCCC2)c(O)c(C2=NS(=O)(=O)c3cc(NS(C)(=O)=O)ccc3N2)c1=O	> 100 µM

Reference: ChEMBL document CHEMBL1145649, “Novel HCV NS5B polymerase inhibitors derived from 4-(1',1'-dioxo-1',4'-dihydro-1'lambda6-benzo[1',2',4']thiadiazin-3'-yl)-5-hydroxy-2H-pyridazin-3-ones: Part 4. Optimization of DMPK properties” (Bioorg Med Chem Lett, 2008)
